The values that follow come from patent publication US20060257938A1, “Method of screening for drugs that block ligand binding to a lipid binding protein” (priority 2005, published 2006).

Where a chain is given by its changes, count along the chain named.

B1: 38M 104S 115A 74F 72A (protein, listed as Rattus norvegicus)
chain: AFDGTWKVDRNENYEKFMEKMGINVVKRKLGAHDNLKMTITQEGNKFTVKESSNFRNIDVVFELGVDFAYSAAFGTELTGTWTMEGNKLVGKFKRVDNGKELISVREISGNELIATYTYEGVEAKRIFKKE
modifications: PEPTIDE (1)...(131) wild-type rat intestinal fatty acid binding protein
B2: 18G 31F 73L 72A (protein, listed as Rattus norvegicus)
chain: B1 chain with M18G, G31F, M38L, A73L, F74D, S104A, A115Q
modifications: PEPTIDE (1)...(131) wild-type rat intestinal fatty acid binding protein
B3: 104N, 72A (protein, listed as Rattus norvegicus)
chain: B1 chain with M38L, F74D, S104N, A115Q
modifications: PEPTIDE (1)...(131) wild-type rat intestinal fatty acid binding protein
B4: 38Q 62I 106I 117A 72A (protein, listed as Rattus norvegicus)
chain: B1 chain with M38Q, F62I, F74D, S104A, R106I, A115Q, Y117A
modifications: PEPTIDE (1)...(131) wild-type rat intestinal fatty acid binding protein
B5: 38M, 72A (protein, listed as Rattus norvegicus)
chain: B1 chain with F74D, S104A, A115Q
modifications: PEPTIDE (1)...(131) wild-type rat intestinal fatty acid binding protein
B6: 38Q, 72A (protein, listed as Rattus norvegicus)
chain: B1 chain with M38Q, F74D, S104A, A115Q
modifications: PEPTIDE (1)...(131) wild-type rat intestinal fatty acid binding protein
B7: 31R, 72A (protein, listed as Rattus norvegicus)
chain: B1 chain with G31R, M38L, F74D, S104A, A115Q
modifications: PEPTIDE (1)...(131) wild-type rat intestinal fatty acid binding protein
B8: 62W, 72A (protein, listed as Rattus norvegicus)
chain: B1 chain with M38L, F62W, F74D, S104A, A115Q
modifications: PEPTIDE (1)...(131) wild-type rat intestinal fatty acid binding protein
B9: 36V, 72A (protein, listed as Rattus norvegicus)
chain: B1 chain with L36V, M38L, F74D, S104A, A115Q
modifications: PEPTIDE (1)...(131) wild-type rat intestinal fatty acid binding protein
B10: 23W, 72A (protein, listed as Rattus norvegicus)
chain: B1 chain with I23W, M38L, F74D, S104A, A115Q
modifications: PEPTIDE (1)...(131) wild-type rat intestinal fatty acid binding protein
B11: 31T, 72A (protein, listed as Rattus norvegicus)
chain: B1 chain with G31T, M38L, F74D, S104A, A115Q
modifications: PEPTIDE (1)...(131) wild-type rat intestinal fatty acid binding protein
B12: 18V 31Y 73I 72A (protein, listed as Rattus norvegicus)
chain: B1 chain with M18V, G31Y, M38L, A73I, F74D, S104A, A115Q
modifications: PEPTIDE (1)...(131) wild-type rat intestinal fatty acid binding protein
B13: 18L 73F 117G 72A (protein, listed as Rattus norvegicus)
chain: B1 chain with M18L, M38L, A73F, F74D, S104A, A115Q, Y117G
modifications: PEPTIDE (1)...(131) wild-type rat intestinal fatty acid binding protein
B14: 36I, 72A (protein, listed as Rattus norvegicus)
chain: B1 chain with L36I, M38L, F74D, S104A, A115Q
modifications: PEPTIDE (1)...(131) wild-type rat intestinal fatty acid binding protein
B15: 18I 31Y 73I 72A (protein, listed as Rattus norvegicus)
chain: B1 chain with M18I, G31Y, M38L, A73I, F74D, S104A, A115Q
modifications: PEPTIDE (1)...(131) wild-type rat intestinal fatty acid binding protein
B16: 49I, 72A (protein, listed as Rattus norvegicus)
chain: B1 chain with M38L, V49I, F74D, S104A, A115Q
modifications: PEPTIDE (1)...(131) wild-type rat intestinal fatty acid binding protein
B17: 14L 18L 31Y 73L 117A 72A (protein, listed as Rattus norvegicus)
chain: B1 chain with Y14L, M18L, G31Y, M38L, A73L, F74D, S104A, A115Q, Y117A
modifications: PEPTIDE (1)...(131) wild-type rat intestinal fatty acid binding protein
B18: 18V 31Y 73V 72A (protein, listed as Rattus norvegicus)
chain: B1 chain with M18V, G31Y, M38L, A73V, F74D, S104A, A115Q
modifications: PEPTIDE (1)...(131) wild-type rat intestinal fatty acid binding protein
B19: 38T, 72A (protein, listed as Rattus norvegicus)
chain: B1 chain with M38T, F74D, S104A, A115Q
modifications: PEPTIDE (1)...(131) wild-type rat intestinal fatty acid binding protein
B20: 31E, 72A (protein, listed as Rattus norvegicus)
chain: B1 chain with G31E, M38L, F74D, S104A, A115Q
modifications: PEPTIDE (1)...(131) wild-type rat intestinal fatty acid binding protein
B21: 31V, 72A (protein, listed as Rattus norvegicus)
chain: B1 chain with G31V, M38L, F74D, S104A, A115Q
modifications: PEPTIDE (1)...(131) wild-type rat intestinal fatty acid binding protein
B22: 18V 31I 55L 73V 72A (protein, listed as Rattus norvegicus)
chain: B1 chain with M18V, G31I, M38L, F55L, A73V, F74D, S104A, A115Q
modifications: PEPTIDE (1)...(131) wild-type rat intestinal fatty acid binding protein
B23: 38S, 72A (protein, listed as Rattus norvegicus)
chain: B1 chain with M38S, F74D, S104A, A115Q
modifications: PEPTIDE (1)...(131) wild-type rat intestinal fatty acid binding protein
B24: 104T 115A 74F 72A (protein, listed as Rattus norvegicus)
chain: B1 chain with M38L, S104T
modifications: PEPTIDE (1)...(131) wild-type rat intestinal fatty acid binding protein
B25: 62P, 72A (protein, listed as Rattus norvegicus)
chain: B1 chain with M38L, F62P, F74D, S104A, A115Q
modifications: PEPTIDE (1)...(131) wild-type rat intestinal fatty acid binding protein
B26: 31I, 72A (protein, listed as Rattus norvegicus)
chain: B1 chain with G31I, M38L, F74D, S104A, A115Q
modifications: PEPTIDE (1)...(131) wild-type rat intestinal fatty acid binding protein
B27: 78F 102I 72A (protein, listed as Rattus norvegicus)
chain: B1 chain with M38L, F74D, L78F, L102I, S104A, A115Q
modifications: PEPTIDE (1)...(131) wild-type rat intestinal fatty acid binding protein
B28: 14I 18L 31W 73V 117G 72A (protein, listed as Rattus norvegicus)
chain: B1 chain with Y14I, M18L, G31W, M38L, A73V, F74D, S104A, A115Q, Y117G
modifications: PEPTIDE (1)...(131) wild-type rat intestinal fatty acid binding protein
B29: 31Q, 72A (protein, listed as Rattus norvegicus)
chain: B1 chain with G31Q, M38L, F74D, S104A, A115Q
modifications: PEPTIDE (1)...(131) wild-type rat intestinal fatty acid binding protein
B30: 14A 18Y 31W 73G 117V 72A (protein, listed as Rattus norvegicus)
chain: B1 chain with Y14A, M18Y, G31W, M38L, A73G, F74D, S104A, A115Q, Y117V
modifications: PEPTIDE (1)...(131) wild-type rat intestinal fatty acid binding protein
B31: 38W, 72A (protein, listed as Rattus norvegicus)
chain: B1 chain with M38W, F74D, S104A, A115Q
modifications: PEPTIDE (1)...(131) wild-type rat intestinal fatty acid binding protein
B32: 14W 72M 117A (protein, listed as Rattus norvegicus)
chain: B1 chain with Y14W, M38L, A72M, F74D, S104A, A115Q, Y117A
modifications: PEPTIDE (1)...(131) wild-type rat intestinal fatty acid binding protein
B33: 18I 31F 73V 72A (protein, listed as Rattus norvegicus)
chain: B1 chain with M18I, G31F, M38L, A73V, F74D, S104A, A115Q
modifications: PEPTIDE (1)...(131) wild-type rat intestinal fatty acid binding protein

One data set is described as follows: Baseline fluorescence ratio Ro of probe in absence of analyte. The following applies: baseline fluorescence ratio of probe.
With B1, the Ro is listed as 0.325.
As for B2, the Ro was 0.225.
Turning to B3, the Ro worked out at 0.396.
The same measure, in the same setting: the figure for B4 is 0.215; for B5 it is 0.261.

The data set is the same for the next values; noted with them: baseline fluorescence ratio of probe, no fatty acid.
Take B6: the Ro worked out at 0.204.
Same read-out and setting: the figure for B7 is 0.182; for B8 it is 0.211.
For B9, the Ro is recorded as 0.330.
With B10, the Ro worked out at 0.449.
Still for that read-out and setting: the figure for B1 is 0.325; for B11 it is 0.389.
Regarding B12, the Ro was determined as 0.359.
Consider B13, for which the Ro is 0.400.
On to B14, for which the Ro amounted to 0.250.
B15: the Ro is 0.340.
Turning to B16, the Ro is on record as 0.362.
Consider B17, for which the Ro was found to be 0.581.
In the case of B18, the Ro was determined as 0.343.
On to B19, for which the Ro was found to be 0.297.
For the molecule B20, the Ro was determined as 0.308.
Take B21: the Ro came out at 0.613.
Same read-out and setting: the figure for B22 is 0.316; for B3 it is 0.396; for B23 it is 0.311.
On to B24, for which the Ro stood at 0.287.
For B25, the Ro was 0.216.
In the case of B26, the Ro is reported as 0.680.
For the molecule B27, the Ro is listed as 0.297.
Take B28: the Ro was 0.470.
On to B4, for which the Ro turned out to be 0.215.
For the molecule B29, the Ro amounted to 0.376.
Consider B30, for which the Ro came to 0.261.
As for B31, the Ro came to 0.231.
Consider B32, for which the Ro came out at 0.322.
For the molecule B33, the Ro was found to be 0.355.
